Assay results as given in PubChem BioAssay AID1347431 (National Center for Advancing Translational Sciences (NCATS), 2020).
Screen size: about 1,200 compounds; fewer than 10 were called active. Calls follow the shape of the dose curve; as a rule, active = well fitted curve in the direction sought with a large enough effect; inconclusive = small, poorly fitted or top-dose-only effect, or another doubt; inactive = no such curve, though single readings can be large or run the other way. This is one part of the list.

Assay: Confirmatory qHTS assay for inhibitors of Activation Induced Cytidine Deaminase (AID): UDG signals; also: 0% is about no effect
Details: UDG coupled enzyme activity counter-screen; at 115 µM (top of the series)
Description: Assay Provider (PI) Patricia Gearhart Ph.D.
National Institute on Aging
National Institute of Health (NIH), Bethesda, MD
Assay Provider (PI) Rahul Kohli Ph.D.
Perelman School of Medicine
University of Pennsylvania, Philadelphia, PA
Activation-Induced Deaminase (AID) is a cytosine deaminase which converts cytosine into uracil within stretches of ssDNA. The presence of uracil in DNA initiates a cascade of mutagenic DNA repair to introduce point mutations and DNA double strand breaks. Specific targeting of AID to the immunoglobulin heavy chain loci (Igh) promotes mutagenesis in the antibody variable region for somatic hypermutation (SHM) or switch regions leading to class switch recombination (CSR). However, AID also plays a role in accumulating unnecessary mutations across the genome. Mis-targeting of AID results in the initiation of tumor development and leads to greater drug resistance among cancer cells when continually expressed. To identify an AID inhibitor, a small molecule library will be screened in collaboration with NCATS core facility at NIH. To confirm biological function, inhibitors will be examined in an in vitro murine B-cell activation assay and subsequent secondary validation screens. Top molecules will be further screened to identify inhibitory efficacy against a wild type primary splenocytes assay. Using these approaches, we hope to identify a small molecule with great efficacy and low toxicity for use as a molecular probe to further characterize AID's intricacies, or even as a therapeutic.
A FRET based analysis of cytosine deamination, was developed to identify potential inhibitors of AID catalytic activity. This screen has two signal output, Read 1 evaluates the AID inhibition response. The second readout (Read 2) evaluates UDG response and is uses as a counterscreen to exclude false positive inhibitors. Inhibition in AID and inactivity in the UDG signal is the desired outcome for this assay.
SEQUENCE No. (e.g., 1, 2, 3, etc.); […] (e.g., Cells, Incubation, Reagent, etc.); VALUE; DESCRIPTION
1a; Reagent; 3 uL; [4/3x] 1 uM AID/2.67 U/mL UDG
1b; Reagent; 3 uL; 2 U/mL UDG
1c; Reagent; 3 uL; 1 uM AID
2a; Compound; 46 nL; Follow-up plates (0.64 uM - 10 mM)
2b; Control; 46 nL; ATA ([…] - 10 mM)
3; Time; 10 min; incubation at room temperature
5; Time; 4 hr; incubation at room temperature
6; Reagent; 4 uL; [2x] 250 mM NaOH
7; Time; 15 sec; centrifuge at 1000 rpm
8; Time; 30 min; incubation at room temperature
9a; Detection; fluorescence (Read 1: AID); EnVision (PerkinElmer) plate reader, 540 excitation and 590 emission filters
9b; Detection; fluorescence (Read 2: UDG); EnVision (PerkinElmer) plate reader, 560 excitation and 665 emission filters
NOTES (numbers refer to sequence above)
1a; Reagents were dispensed in a medium-binding black solid-bottom Greiner plates (789176F) using a BioRptr liquid dispenser. Dispense 3 uL of [4/3x] 1 uM AID (provided by Kohli lab) and [4/3x] 2 U/mL UDG (NEB M0280L) into columns 1, 2, 5 to 48.
1b; Dispense 3 uL of [4/3x] 2 U/mL UDG into column 3.
1c; Dispense 3 uL of [4/3x] 1 uM AID into column 4.
2a; Compound (7-points [uM]: 0.64; 3.2; 16; 80; 400; 2,000; 10,000; […]) double pin-transferred (Dip Factor = 2) using the Kalypsys (Wako USA) pintool equipped with a 1536 pinhead for a final concentration range of 7.32 nM - 114 uM.
2b; 10 mM Aurintricarboxylic Acid (Sigma A1895) (ATA, 8-point, n = 2, 1:2.5 dilution in column 2) double pin-transferred (Dip Factor = 2) using the Kalypsys (Wako USA) pintool equipped with a 1536 pinhead for a [final] range of 186 nM - 114 uM.
3; Room temperature incubation.
4; Dispense 1 uL of substrate mixture from the Kohli lab [4x] […] DJC20 and [4x] 250 nM DJC23 into columns 1 to 48 .
5; Room temperature incubation.
6; Dispense 4 uL of substrate mixture [2x] 250 mM NaOH into columns 1 to 48.
7; Centrifugation step to remove bubbles.
8; Room temperature incubation
9a; Fluorescence signal (column label AID) was read using the EnVision plate reader. […]
With `Cc1cccc(CN2C(=O)CN=C(c3ccccc3)c3cc(Cl)ccc32)c1` the activity change, negative = inhibition was inactive: -1.23%.
With `O=S1(=O)N(CCN2CC=C(c3c[nH]c4cc(F)ccc34)CC2)c2cccc3c2N1CCC3` the activity change, negative = inhibition was inactive: 9.84%.
In the case of `Cc1ccccc1CN1C(=O)CN=C(c2ccccc2)c2cc(Cl)ccc21`, the activity change, negative = inhibition was inactive: 0.914%.
In the case of `Cc1c(C(c2ccc(Cl)cc2Cl)c2c(O)c3ccccc3oc2=O)c(=O)n(-c2ccccc2)n1C` (centres undefined), the activity change, negative = inhibition was inactive: 4.62%.
With `CC(=O)c1c(O)c(C)c(O)c(Cc2c(O)c3c(c(C(=O)/C=C/c4ccccc4)c2O)OC(C)(C)C=C3)c1O` the activity change, negative = inhibition was inactive: -5.22%.
For `Cc1cccc(-c2nc(CN3C(=O)CN=C(c4ccccc4)c4ccccc43)c(C)o2)c1`, the activity change, negative = inhibition was inactive: -4.83%.
With `CCCCC/C=C\C/C=C\C/C=C\C/C=C\CCCC(=O)NCC(=O)O` the activity change, negative = inhibition was inactive: 3.6%.
With `O=C(Nc1cc(C(F)(F)F)cc(C(F)(F)F)c1)c1cccn(Cc2ccccc2Cl)c1=O` the activity change, negative = inhibition was inactive: -5.52%.
For `CN1CC[C@@]2(C)c3cc(O)ccc3N(C)C12` (some centres undefined), the activity change, negative = inhibition was inactive: -4.53%.
For `O=C(c1ccc2c(c1)N(Cc1ccc(F)cc1)C(=O)c1ccccc1S2)N1CCC2(CC1)OCCO2`, the activity change, negative = inhibition was inactive: -0.573%.
In the case of `COc1ccc2c(c[n+](C)c3c4cc5c(cc4ccc23)OCO5)c1OC`, the activity change, negative = inhibition was inactive: -23.3%.
In the case of `Cc1ccccc1CN1C(=O)C(C)N=C(c2ccccc2)c2ccccc21` (centres undefined), the activity change, negative = inhibition was inactive: -4.34%.
With `CCCC1=Nc2cc(C(=O)NCCCN(CC)CC)ccc2Sc2ccccc21` the activity change, negative = inhibition was inactive: 0.887%.
In the case of `CN(N=O)c1cc(O)ccc1O`, the activity change, negative = inhibition was inactive: -4.44%.
With `NC(Cc1cc(O)c(O)cc1O)C(=O)O` (centres undefined) the activity change, negative = inhibition was inactive: 3.19%.
In the case of `CN(N=O)c1ccc(O)c(O)c1`, the activity change, negative = inhibition was inactive: -8.61%.
In the case of `COc1cc(C(c2c(O)c3ccccc3oc2=O)c2c(C)n(C)n(-c3ccccc3)c2=O)ccc1O` (centres undefined), the activity change, negative = inhibition was inactive: -3.72%.
In the case of `Cc1ccc(NC(=O)N(Cc2ccc3c(c2)OCO3)C2CCN(Cc3ccccc3)CC2)cc1C`, the activity change, negative = inhibition was inactive: -16%.
In the case of `NCC(O)c1cc(O)c(O)cc1F` (centres undefined), the activity change, negative = inhibition was inactive: -4.02%.
